Literature values as cited in patent publication US11035860B2, “Auto-active and intracellular mutant of MET” (Stichting Katholieke Universiteit, priority 2014, dated 2021).
At least one compound was matched to its structure with a doubt left.

System: orthotopic E98 GBM xenografts
Conditions: mice carrying orthotopic E98 GBM xenografts; previous study (Navis et al., 2013); cited from earlier work

In the case of `COc1cc2nccc(Oc3ccc(NC(=O)C4(C(=O)Nc5ccc(F)cc5)CC4)cc3)c2cc1OC` [cabozantinib], the survival of mice is listed as “prolongs survival”.
